# Data as given in PubChem BioAssay AID602196 (INSERM, 2012)
# Aim: 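Modifiers of cisplatin sensitivity in A549 cells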
# System: human A549 lung cancer cells
# Reagent: siRNA pair against human genes
# Timing: 48 h transfection before cisplatin; time from cisplatin to read-out not stated
# Treatment: cisplatin at a dose killing half of control-siRNA cells; exact dose and duration not given
# Read-out: 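Cisplatin cell death as a shift from the 50% death seen with control siRNA; siRNAs toxic or growth-blocking alone scored 0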
# Scale: two-siRNA summed score (-2 to +2): higher = both siRNAs protect from cisplatin killing; -2 means both sensitise
# Rule for the call: 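siRNAs harmful alone (LDH or WST-1) get 0; others get +1 for less and -1 for more cisplatin killing; genes are active when the two siRNAs give the same sign, summing to ±2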
# Calls: active = both siRNAs shift cisplatin killing the same way; inactive = no consistent shift, or siRNA harmful alone
# In all, the deposit lists about 23,000 reagents; below is a part drawn at random. 455 of all reagents (2%) count as active. 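Active includes both protection and sensitisation; some change values fall well beyond the stated -50 to +50 range.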 A number with no mark means an inactive call. Not all columns of the deposit are shown. No sequences are given here. Not given: the amount of reagent.
gene knocked down,two-siRNA summed score (-2 to +2)
LOC126435,0
ABCB8,-1
ADGRF5,0
B3GNT9,0
ASPHD1,0
EBF3,0
SLC25A16,-1
RAD51,0
ERCC5,0
TUBGCP4,0
SEMA6D,1
LOC402626,0
ZCCHC8,0
ITGB3,-1
LOC442601,0
HEPH,-1
COMP,-1
LOC392425,1
SMCP,0
PYCARD,0
HCFC2,0
USB1,0
RLN2,0
LOC144762,0
LOC389702,0
COBLP1,0
TIE1,0
LOC440594,0
HCRTR1,0
LOC387789,0
ZNF79,0
WFDC10A,1
KLHL14,0
DENND5A,0
LOC153441,0
BUB3,0
SSBP4,0
LOC339979,1
BRINP3,-1

Targets listed so far whose gene name starts with E or e:
gene knocked down,two-siRNA summed score (-2 to +2)
EBF3,0
ERCC5,0
